Data source: PubChem BioAssay AID493246 (Drosophila RNAi Screening Center, 2011)
Assay: 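Identify essential fly genes by loss of cell viability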 (primary screen). Cells: Drosophila Kc and S2R+ cells. Reagent: long dsRNA against Drosophila genes. Measurement: 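Raw, unnormalised count of remaining cells in each well; per-plate z-scores of cell number underlie the calls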. Direction: Kc cell number and S2R+ cell number: higher = more cells remaining. Call rule: 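Counted as a hit if cell number falls by a z-score of at least 3 within its plate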.
The deposit covers about 21,000 reagents; this is a random part of those with a known target gene and a result. Over the whole deposit, 429 (2%) are marked active. 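Values are raw and not normalised between plates; calls rest on per-plate z-scores that were not deposited.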 The numbers tell different reagents against one gene apart. A plus sign joins genes that one reagent is predicted to hit. Not stated in the record: the amount of reagent, the time to read-out.

"Kc cell number, rep 1","Kc cell number, rep 2","S2R+ cell number, rep 1","S2R+ cell number, rep 2",call,target gene,reagent
1.39e6,1.55e6,1.00e6,1.11e6,inactive,Spn28Dc (Serpin 28Dc),1
1.49e6,1.62e6,1.06e6,1.29e6,inactive,CG32111 (retired record),1
1.49e6,1.53e6,1.04e6,1.06e6,inactive,dpr8 (defective proboscis extension response 8),1
1.50e6,1.49e6,1.08e6,1.19e6,inactive,dpr8 (defective proboscis extension response 8),2
1.46e6,1.47e6,1.02e6,1.10e6,inactive,dpr8 (defective proboscis extension response 8),3
1.46e6,1.48e6,1.05e6,1.14e6,inactive,dpr8 (defective proboscis extension response 8),4
1.33e6,1.39e6,1.02e6,1.16e6,inactive,Uba1 (Ubiquitin activating enzyme 1),1
1.41e6,1.50e6,1.01e6,1.11e6,inactive,wrapper,1
1.54e6,1.55e6,1.08e6,1.15e6,inactive,"betaNACtes2 (Nascent-associated complex beta-subunit-like, testis 2)",1
1.49e6,1.43e6,9.00e5,1.12e6,inactive,CG33155 + mRpL53,1
1.33e6,1.47e6,6.98e5,7.60e5,inactive,Ssrp (Structure specific recognition protein),1
1.58e6,1.63e6,1.16e6,1.29e6,inactive,Or22b (Odorant receptor 22b),1
1.71e6,1.63e6,1.09e6,1.16e6,inactive,CG15210,1
1.29e6,1.44e6,1.21e6,1.26e6,inactive,CG32109,1
1.37e6,1.43e6,1.16e6,1.14e6,inactive,CG8560,1
1.36e6,1.49e6,1.30e6,1.37e6,inactive,CG34425,1
1.50e6,1.43e6,1.11e6,1.25e6,inactive,Elp3 (Elongator complex protein 3),1
1.43e6,1.50e6,1.33e6,1.37e6,inactive,CG6567,1
1.53e6,1.49e6,1.01e6,1.09e6,inactive,btd (buttonhead),1
1.45e6,1.58e6,1.24e6,1.33e6,inactive,Hsp70Bb + Hsp70Bbb,1
1.76e6,1.84e6,1.12e6,1.20e6,inactive,Dlip3 (Dorsal interacting protein 3),1
1.44e6,1.45e6,1.02e6,1.10e6,inactive,Vps16B (Vacuolar protein sorting 16B),1
1.45e6,1.45e6,1.01e6,1.09e6,inactive,CG43658,1
1.75e6,1.89e6,1.17e6,1.25e6,inactive,baf (barrier to autointegration factor),1
1.42e6,1.49e6,1.17e6,1.29e6,inactive,zda (zonda),1
1.34e6,1.48e6,1.33e6,1.47e6,inactive,CG18747,1
1.81e6,1.83e6,1.07e6,1.18e6,inactive,CG4271,1
1.78e6,1.78e6,1.02e6,1.25e6,inactive,NfI (Nuclear factor I),1
1.65e6,1.66e6,1.02e6,1.23e6,inactive,Lcp65APsi (pseudo),1
1.30e6,1.36e6,1.10e6,1.18e6,inactive,Lcp65APsi (pseudo),2
1.53e6,1.52e6,1.15e6,1.30e6,inactive,Hand,1
1.50e6,1.20e6,1.13e6,1.29e6,inactive,brv2 (brivido-2),1
1.73e6,1.60e6,9.88e5,1.12e6,inactive,CG16723,1
1.45e6,1.64e6,1.05e6,1.23e6,inactive,CG42812 + CG42811,1
1.42e6,1.55e6,1.06e6,1.14e6,inactive,CG42812 + CG42811,2
1.55e6,1.53e6,1.07e6,1.18e6,inactive,TRAM,1
1.54e6,1.54e6,1.01e6,1.20e6,inactive,TRAM,2
1.58e6,1.83e6,1.21e6,1.30e6,inactive,Osi10b (Osiris 10b),1
1.65e6,1.46e6,1.16e6,1.24e6,inactive,CG11158,1
1.44e6,1.66e6,1.35e6,3.94e5,inactive,CG9394,1
1.58e6,1.61e6,1.30e6,1.13e6,inactive,Ist1,1
1.43e6,1.49e6,1.08e6,1.17e6,inactive,CG31288,1
1.79e6,1.78e6,1.28e6,1.41e6,inactive,w-cup (world cup),1
1.57e6,1.60e6,1.20e6,1.25e6,inactive,Prx3 (Peroxiredoxin 3),1
1.57e6,1.50e6,1.06e6,1.20e6,inactive,CG1552,1
1.83e6,1.97e6,1.45e6,1.59e6,inactive,bocks (bocksbeutel),1
1.44e6,1.47e6,1.18e6,1.16e6,inactive,l(3)L1231 (lethal (3) L1231),1
1.25e6,1.37e6,1.10e6,1.14e6,inactive,glec (gliolectin),1
1.28e6,1.34e6,1.14e6,1.24e6,inactive,CG31265,1
1.33e6,1.37e6,1.07e6,1.24e6,inactive,Act42A (Actin 42A),1
1.75e6,1.93e6,1.42e6,1.52e6,inactive,"Echs1 (Enoyl-CoA hydratase, short chain 1)",1
1.57e6,1.67e6,1.24e6,2.87e5,inactive,CG13965,1
1.40e6,1.43e6,7.06e5,9.38e5,inactive,Wwox (WW domain containing oxidoreductase),1
9.77e5,1.22e6,6.48e5,7.59e5,active,Nup153 (Nucleoporin 153kD),1
1.58e6,1.60e6,1.22e6,1.42e6,inactive,lmgA + lmgB,1
1.79e6,1.91e6,1.28e6,1.39e6,inactive,ITP (Ion transport peptide),1
1.44e6,1.47e6,1.06e6,1.17e6,inactive,CG8945,1
1.50e6,1.49e6,1.13e6,1.18e6,inactive,CG8945,2
1.61e6,1.51e6,1.03e6,1.14e6,inactive,CG9806,1

Called active, among the entries above:
"Kc cell number, rep 1","Kc cell number, rep 2","S2R+ cell number, rep 1","S2R+ cell number, rep 2",call,target gene,reagent
9.77e5,1.22e6,6.48e5,7.59e5,active,Nup153 (Nucleoporin 153kD),1
